Structures can show the parent of a compound that is named as a salt. The list shows a part of the results. Many values rest on one well or one pass, so single values are uncertain.

One assay concerns A2780. Nature of the assay: cell growth inhibition ratio vs untreated control (CCK8); higher = stronger inhibition of cell viability. To be noted: 10 µM; 48 h. As for the experimental part:
(§1)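 Natural product library (Topscience) screened at 10 µM final concentration for 48 h on ovarian cancer A2780 cells and patient-derived ovarian cancer cells (PDC) in 96-well plates; viability read by CCK8 and reported as inhibition ratio (%) relative to untreated control. Single-dose primary screen.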

The test system of assay [1] is patient-derived ovarian cancer cells (PDC). The description is as above. Conditions: 10 µM; 48 h. As for the experimental part: as §1

As for `CC1(C)[C@@H](O)CC[C@]2(C)[C@H]3C(=O)C=C4[C@@H]5C[C@@](C)(C(=O)O)CC[C@]5(C)CC[C@@]4(C)[C@]3(C)CC[C@@H]12` [Enoxolone], the “cell growth inhibition ratio” value in the assay on A2780 was 11.8%; in assay [1] it was -1.1%.

For the compound `OC[C@H]1OC(O)[C@H](O)[C@@H](O)[C@@H]1O` (stereo partly drawn) [D(+)-Glucose], the “cell growth inhibition ratio” value was 1.59% in the assay with A2780 and -6.01% in assay [1].

Regarding `O=c1c(O[C@@H]2O[C@H](CO)[C@@H](O)[C@H](O)[C@H]2O)c(-c2cc(O)c(O[C@@H]3O[C@H](CO)[C@@H](O)[C@H](O)[C@H]3O)c(O)c2)oc2cc(O)cc(O)c12` [Complanatoside A], the “cell growth inhibition ratio” value in the assay with A2780 was -37.7%; in assay [1], 2.67%.

`O=C(O)c1cc(=O)c2cccc(O)c2[nH]1` [Xanthurenic Acid]: the entries for the “cell growth inhibition ratio” value (in the assay with A2780; in assay [1]) were 6.5% and -21.7%, respectively.

As for `OC[C@H]1O[C@H](O[C@H]2[C@H](O)[C@@H](O)[C@H](O)O[C@@H]2CO)[C@H](O)[C@@H](O)[C@@H]1O` [Maltose], the “cell growth inhibition ratio” value amounted to 1.35% in the assay with A2780 and 3.18% in assay [1].

For the compound `OCc1ccc(O)cc1` [4-Hydroxybenzyl alcohol], the “cell growth inhibition ratio” value with A2780 was 5.05%; in assay [1], -7.35%.

With `CN[C@@H]1[C@H](O)[C@H](NC)[C@H]2O[C@@]3(O)C(=O)C[C@@H](C)O[C@H]3O[C@@H]2[C@H]1O` [Spectinomycin dihydrochloride], the “cell growth inhibition ratio” value is 7.14% in the assay on A2780 and 6.91% in assay [1].

With `CC(C)=CCC[C@](C)(O)[C@H]1CC[C@]2(C)[C@@H]1[C@H](O)C[C@@H]1[C@@]3(C)CC[C@H](O)C(C)(C)[C@@H]3[C@@H](O)C[C@]12C` [Protopanaxatriol], the “cell growth inhibition ratio” value was 14.8% with A2780 and -0.144% in assay [1].

`O=Cc1ccc(OC2OC(CO)C(O)C(O)C2O)cc1` (stereo not given) [Helicid]: the “cell growth inhibition ratio” value was 5.18% with A2780 and -2.17% in assay [1].

Take `COC(=O)C1=CC[C@@]23CC[C@@H]([C@@](C)(/C=C/C=C(\C)C(=O)O)OC2=O)[C@@]3(OC(C)=O)CC1` [Pseudolaric Acid B]: the “cell growth inhibition ratio” value with A2780 amounted to 82.8%; in assay [1], 40.8%.

`CC(=O)OCC(=O)[C@@]1(O)CC[C@H]2[C@@H]3CCC4=CC(=O)CC[C@]4(C)[C@H]3C(=O)C[C@@]21C` [Cortisone acetate]: the “cell growth inhibition ratio” value in the assay on A2780 turned out to be 12%; in assay [1] it was 3.66%.

Regarding `O=C(O)/C=C/c1ccccc1` [Cinnamic acid], the “cell growth inhibition ratio” value worked out at 9.12% with A2780 and 11% in assay [1].

Turning to `CC(=O)O[C@@H]1[C@@H](OC(C)=O)[C@H](O[C@H]2CC[C@]34C[C@]35CC[C@]3(C)[C@@H]([C@@]6(C)CC[C@@H](C(C)(C)O)O6)[C@@H](O)C[C@@]3(C)[C@@H]5C[C@H](O[C@@H]3O[C@H](CO)[C@@H](O)[C@H](O)[C@H]3O)[C@H]4C2(C)C)OC[C@H]1O` [Astragaloside I], the “cell growth inhibition ratio” value was 10.8% with A2780 and -11.4% in assay [1].

As for `O[C@@H]1[C@@H](O)[C@@H](OC/C=C/c2ccccc2)O[C@H](CO[C@@H]2OC[C@H](O)[C@H](O)[C@H]2O)[C@H]1O`, the figures for the “cell growth inhibition ratio” value (in the assay with A2780; in assay [1]) were -1.22% and 0.707%, respectively.

Turning to `OC[C@H]1O[C@@H](OCCc2ccc(O)cc2)[C@H](O)[C@@H](O)[C@@H]1O` [Salidroside], the “cell growth inhibition ratio” value was 4.97% in the assay with A2780 and -7.59% in assay [1].

In the case of `CN1CCC[C@H]1c1cccnc1` [Nicotine], the “cell growth inhibition ratio” value turned out to be 1.42% in the assay on A2780 and 10.1% in assay [1].

Consider `O=C(O)[C@@H](O)[C@H](O)[C@H](O)[C@@H](O)C(=O)O` [Mucic Acid], for which the figures for the “cell growth inhibition ratio” value (in the assay on A2780; in assay [1]) were 5.04% and -0.75%, respectively.

For `O=C(CO)C(O)C(O)C(O)CO` (stereo not drawn) [L(-)-sorbose], the “cell growth inhibition ratio” value was found to be 25.3% with A2780 and 14.5% in assay [1].

As for `CCOc1cc(C=O)ccc1OC(C)=O` [Ethyl vanillin acetate], the “cell growth inhibition ratio” value is -2.78% in the assay on A2780 and 7.68% in assay [1].

In the case of `C[C@@H]1O[C@@H](O[C@@H]2[C@@H](O)[C@H](OCCc3ccc(O)c(O)c3)O[C@H](CO)[C@H]2OC(=O)/C=C/c2ccc(O)c(O)c2)[C@H](O)[C@H](O)[C@H]1O` [Verbascoside], the “cell growth inhibition ratio” value was 5.14% in the assay on A2780 and -1.41% in assay [1].
